Experimental findings from PMC8178337 are described below.

Sequences of proteins named here, by UniProt entry; tags and fusion partners are left off.
UniProt P15884: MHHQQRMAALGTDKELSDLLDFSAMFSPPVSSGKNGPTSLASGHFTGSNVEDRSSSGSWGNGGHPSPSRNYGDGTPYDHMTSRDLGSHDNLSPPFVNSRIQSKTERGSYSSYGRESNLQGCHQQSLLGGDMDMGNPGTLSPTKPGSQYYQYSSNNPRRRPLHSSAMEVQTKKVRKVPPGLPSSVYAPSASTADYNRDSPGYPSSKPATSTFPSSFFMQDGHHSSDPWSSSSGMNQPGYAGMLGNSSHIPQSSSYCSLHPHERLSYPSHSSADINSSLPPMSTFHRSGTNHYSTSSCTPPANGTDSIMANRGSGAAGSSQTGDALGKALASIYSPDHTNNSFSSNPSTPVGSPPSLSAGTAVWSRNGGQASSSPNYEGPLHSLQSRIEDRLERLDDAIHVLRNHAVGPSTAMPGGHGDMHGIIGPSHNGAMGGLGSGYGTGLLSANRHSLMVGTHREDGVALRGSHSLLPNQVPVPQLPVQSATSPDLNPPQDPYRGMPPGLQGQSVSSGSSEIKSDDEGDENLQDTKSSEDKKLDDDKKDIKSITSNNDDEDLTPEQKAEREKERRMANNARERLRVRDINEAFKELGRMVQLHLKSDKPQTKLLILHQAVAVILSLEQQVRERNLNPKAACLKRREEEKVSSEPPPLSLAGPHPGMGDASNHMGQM

These are yes or no findings as the source states them, for the method shown. In cells and extracts the contact can be indirect. A yes stands for co-enrichment or nearness to the bait. Other partners may have been found.

The target of the assay is T1, Runt-related transcription factor 1 (Runx1t1) (human (endogenous in 253 J and J82)) (UniProt Q06455).
T1 sequence: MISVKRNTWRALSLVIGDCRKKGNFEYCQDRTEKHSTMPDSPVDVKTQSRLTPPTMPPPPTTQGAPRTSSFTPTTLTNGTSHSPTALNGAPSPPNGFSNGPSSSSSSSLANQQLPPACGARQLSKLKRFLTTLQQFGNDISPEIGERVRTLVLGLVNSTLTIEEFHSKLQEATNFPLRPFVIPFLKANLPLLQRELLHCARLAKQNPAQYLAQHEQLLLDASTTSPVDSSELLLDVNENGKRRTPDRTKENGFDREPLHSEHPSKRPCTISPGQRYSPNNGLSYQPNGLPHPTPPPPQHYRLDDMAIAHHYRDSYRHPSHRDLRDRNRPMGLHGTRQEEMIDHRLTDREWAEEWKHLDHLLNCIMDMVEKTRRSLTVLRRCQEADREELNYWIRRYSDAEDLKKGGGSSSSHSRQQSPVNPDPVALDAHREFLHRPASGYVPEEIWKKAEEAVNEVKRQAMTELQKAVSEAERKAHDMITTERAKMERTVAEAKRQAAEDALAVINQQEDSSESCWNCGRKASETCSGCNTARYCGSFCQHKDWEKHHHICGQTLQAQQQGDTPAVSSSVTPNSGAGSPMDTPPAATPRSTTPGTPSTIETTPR
Nature of the assay: affinity purification with mass spectrometry; CoIP-MS with an anti-Runx1t1 antibody in J82 cells, with and without RBM24 overexpression.

As for “Transcription factor 4 (TCF4) (from UniProt P15884 1-667)”, the binding entry is recorded as “binds”.
